Consider 7 compounds from the odorant receptor screen of Mainland et al. (2015).

Chains of the proteins cited; added tags and fusions are not shown. Chains listed by the source or under a name are the forms on record and can include a tag or linker.
OR11H13, as listed by the source: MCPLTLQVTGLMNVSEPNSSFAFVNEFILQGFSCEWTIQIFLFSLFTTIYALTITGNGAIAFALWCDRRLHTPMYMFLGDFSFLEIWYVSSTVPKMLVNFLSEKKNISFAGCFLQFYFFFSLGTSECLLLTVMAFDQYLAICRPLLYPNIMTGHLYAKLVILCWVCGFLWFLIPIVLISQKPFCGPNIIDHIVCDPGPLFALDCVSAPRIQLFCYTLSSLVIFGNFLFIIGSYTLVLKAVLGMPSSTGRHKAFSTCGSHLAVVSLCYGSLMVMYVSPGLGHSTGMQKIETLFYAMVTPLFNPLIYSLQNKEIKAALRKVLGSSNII

Where “and” joins values, the source holds several entries; their conditions need not be identical. Identical values can stand only once. Some of the results follow. Single wells; the ratio to wells without odorant was worked out here, and repeats agree poorly.

Some test systems named below: OR10R2 clone 1400; OR10T2 clone 1032; OR10W1 R263Q clone 1176; OR10X1 clone 1368; OR10X1 clone 1516; OR10Z1 clone 1026; OR11A1 clone 1062; OR11H1 clone 1558; OR11H12 clone 1302; OR11H13 clone 1435; OR11H4 clone 1263; OR11H4 clone 1423; OR11H6 clone 1275; OR12D2 clone 1075; OR12D3 clone 1071; OR13A1 clone 1107; OR13C2 clone 1717.
What all share (assay): odorant receptor activation (CRE luciferase / Renilla) (fold of no-odor wells); higher = more activation
What all share (settings): 100 µM

The subject of assay [1] is OR10V1 Q101L/V117A/Q123W clone 1520.
Assay [2] concerns OR11L1 G108S/F117L/A142T/R171P clone 1031.
Assay [3] has as its system OR12D2 V47F/L56P/S104F/F113L/L120R/V159I clone 1373.

Turning to `O=C1CCCCCCCCCCCCCCO1` [pentadecalactone], the odorant receptor activation with OR10R2 clone 1400 turned out to be 0.934; in the assay on OR10T2 clone 1032, 0.939; in assay [1] it was 0.857; in the assay on OR10W1 R263Q clone 1176 it was 0.728; with OR10X1 clone 1368 it was 0.814; with OR10X1 clone 1516, 0.776. Also, the odorant receptor activation with OR10Z1 clone 1026 worked out at 0.732; in the assay on OR11A1 clone 1062, 0.991; in the assay on OR11H1 clone 1558 it was 0.71; in the assay with OR11H12 clone 1302, 0.762; in the assay on OR11H13 clone 1435 it was 1.71; in the assay with OR11H4 clone 1263, 0.727. Also, the odorant receptor activation amounted to 0.962 in the assay with OR11H4 clone 1423; 0.689 with OR11H6 clone 1275; 0.828 in assay [2]; 0.956 in assay [3]; 1.18 in the assay on OR12D2 clone 1075; 0.929 in the assay on OR12D3 clone 1071. Moreover, the values for the odorant receptor activation in the assay with OR13A1 clone 1107 and with OR13C2 clone 1717 were 1.29 and 0.793, respectively.

With `CC12CCC(CC1)C(C)(C)O2` [cineole], the odorant receptor activation in the assay on OR10R2 clone 1400 turned out to be 0.125; in the assay with OR10T2 clone 1032 it was 0.727; in assay [1], 0.834; with OR10W1 R263Q clone 1176, 0.728; in the assay on OR10X1 clone 1368, 0.212; with OR10X1 clone 1516 it was 1.14. The odorant receptor activation in the assay with OR10Z1 clone 1026 is 0.994; in the assay on OR11A1 clone 1062, 0.853; in the assay with OR11H1 clone 1558, 0.863; in the assay on OR11H12 clone 1302, 0.813; in the assay with OR11H13 clone 1435 it was 0.158; in the assay with OR11H4 clone 1263 it was 0.954. Moreover, the odorant receptor activation with OR11H4 clone 1423 is 0.125; in the assay on OR11H6 clone 1275 it was 1; in assay [2], 0.864; in assay [3] it was 0.186; in the assay on OR12D2 clone 1075, 0.905; in the assay with OR12D3 clone 1071, 0.606. The odorant receptor activation was 1.07 in the assay with OR13A1 clone 1107 and 1 with OR13C2 clone 1717.

Regarding `CCCCCCC=O` [heptaldehyde], the odorant receptor activation in the assay with OR10R2 clone 1400 is 0.975 and 0.847; in the assay on OR10T2 clone 1032, 1.23 and 1.11; in the assay on OR10X1 clone 1368, 1.04 and 0.947; in the assay on OR10Z1 clone 1026 it was 1.13 and 0.869; in the assay with OR11A1 clone 1062 it was 1.47 and 1.81; in the assay on OR11H1 clone 1558 it was 0.692. Moreover, the odorant receptor activation in the assay on OR11H12 clone 1302 is 0.64 and 1.33 and 0.867; with OR11H13 clone 1435 it was 0.906 and 0.831; in the assay on OR11H4 clone 1263, 0.681 and 0.875 and 1.52; in the assay on OR11H4 clone 1423 it was 0.997 and 0.831; in the assay with OR11H6 clone 1275, 0.964 and 0.757 and 1.05; in assay [2] it was 1.69 and 0.75. The odorant receptor activation in [3] is 1.11 and 0.9; in the assay on OR12D2 clone 1075 it was 1.1 and 1.22; in the assay on OR12D3 clone 1071, 0.951 and 0.605; in the assay with OR13A1 clone 1107, 0.644 and 1.72; in the assay on OR13C2 clone 1717, 1.1.

In the case of `c1cnccn1` [pyrazine], the odorant receptor activation with OR10R2 clone 1400 was 1.04; in the assay on OR10T2 clone 1032, 1.05; in assay [1], 0.924; with OR10W1 R263Q clone 1176 it was 0.9; with OR10X1 clone 1368 it was 0.62; in the assay with OR10X1 clone 1516 it was 0.571. Also, the odorant receptor activation was 0.778 with OR10Z1 clone 1026; 1.12 in the assay with OR11A1 clone 1062; 0.911 in the assay with OR11H1 clone 1558; 0.91 in the assay on OR11H12 clone 1302; 1.38 in the assay with OR11H13 clone 1435; 0.831 in the assay on OR11H4 clone 1263. Besides, the odorant receptor activation in the assay with OR11H4 clone 1423 was determined as 0.992; in the assay with OR11H6 clone 1275, 0.73; in assay [2], 0.697; in [3] it was 0.965; with OR12D2 clone 1075, 1.12; in the assay with OR12D3 clone 1071, 0.933. In addition, the results for the odorant receptor activation in the assay on OR13A1 clone 1107 and in the assay with OR13C2 clone 1717 were 1.11 and 0.899, respectively.

For the compound `C=C(C)C1CC=C(C)C(=O)C1` (centres undefined) [r-carvone], the odorant receptor activation was 1.05 in the assay on OR10R2 clone 1400; 0.893 with OR10T2 clone 1032; 0.909 in [1]; 0.985 in the assay on OR10W1 R263Q clone 1176; 0.682 in the assay with OR10X1 clone 1368; 0.741 in the assay on OR10X1 clone 1516. For the same compound, the odorant receptor activation in the assay with OR10Z1 clone 1026 worked out at 0.841; in the assay on OR11A1 clone 1062, 1.26; in the assay on OR11H1 clone 1558 it was 0.627; with OR11H12 clone 1302, 0.924; in the assay on OR11H13 clone 1435, 1.44; in the assay with OR11H4 clone 1263, 0.74. Further, the odorant receptor activation was 0.991 in the assay with OR11H4 clone 1423; 0.791 in the assay on OR11H6 clone 1275; 0.803 in assay [2]; 0.97 in assay [3]; 1.02 in the assay on OR12D2 clone 1075; 0.965 in the assay on OR12D3 clone 1071. Moreover, the odorant receptor activation with OR13A1 clone 1107 came out at 0.958; with OR13C2 clone 1717, 0.731.

With `CC(C)(C)c1ccc(CCC=O)cc1` [bourgeonal], the odorant receptor activation with OR10R2 clone 1400 came out at 0.129; in the assay with OR10T2 clone 1032, 0.768; in assay [1], 0.903; with OR10W1 R263Q clone 1176 it was 0.76; in the assay on OR10X1 clone 1368, 0.198; in the assay on OR10X1 clone 1516 it was 1.77. Further, the odorant receptor activation is 0.821 in the assay on OR10Z1 clone 1026; 0.77 in the assay with OR11A1 clone 1062; 0.776 in the assay with OR11H12 clone 1302; 0.125 in the assay with OR11H13 clone 1435; 0.702 with OR11H4 clone 1263; 0.157 in the assay with OR11H4 clone 1423. In addition, the odorant receptor activation in the assay with OR11H6 clone 1275 amounted to 0.907; in assay [2], 0.943; in [3], 0.164; with OR12D2 clone 1075, 0.928; in the assay on OR12D3 clone 1071, 0.965; with OR13A1 clone 1107 it was 0.992.

On to `CC(C)C=O` [isobutyraldehyde], for which the odorant receptor activation in the assay on OR10R2 clone 1400 was 0.905; in the assay on OR10T2 clone 1032 it was 0.703; in assay [1], 1.13 and 1.1; in the assay on OR10W1 R263Q clone 1176, 1.09; in the assay on OR10X1 clone 1368, 0.903; in the assay on OR10X1 clone 1516 it was 1.09 and 0.908. The odorant receptor activation in the assay on OR10Z1 clone 1026 was 1.28; in the assay with OR11A1 clone 1062, 1.4; in the assay on OR11H1 clone 1558, 0.786; in the assay on OR11H13 clone 1435, 0.842; in the assay with OR11H4 clone 1263 it was 0.79 and 1.25; in the assay with OR11H4 clone 1423 it was 0.925. For the same compound, the odorant receptor activation is 1.07 and 0.692 with OR11H6 clone 1275; 0.485 in [2]; 0.952 in assay [3]; 1.33 with OR12D2 clone 1075; 0.858 in the assay with OR12D3 clone 1071; 0.967 in the assay on OR13A1 clone 1107. Further, the odorant receptor activation with OR13C2 clone 1717 turned out to be 0.935.
